In article doi:10.1101/358663 one finds binding data, which are given here for one substance.

The assay deals with Pseudomonas aeruginosa FtsW (Pseudomonas aeruginosa) (UniProt Q9HW00). As to the kind of experiment: co-purification on anti-FLAG affinity resin.

These are yes or no findings as the source states them, for the method shown. In cells and extracts the contact can be indirect. A result given as binding can be weak or reduced; the word gives no strength.

With “Pseudomonas aeruginosa PBP3 (from UniProt G3XD46 1-579) (enzyme)”, the binding result is reported as “binds”.
